Taken from: PubChem BioAssay AID652259 (Drosophila RNAi Screening Center, 2013)

- Assay: 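Identify new Wingless signalling regulators in fly cells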 (primary screen)
- System: Drosophila clone 8 imaginal disc epithelial cells
- Knock-down reagent: long dsRNA against Drosophila genes
- Treatment: pathway stimulated by co-transfected Wingless expression plasmid
- Detection: 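Firefly luciferase from a tcf-site Wingless reporter, measured alongside co-transfected Renilla luciferase that tracks transfection; pathway stimulated by a Wingless plasmid; the firefly-to-Renilla ratio is not deposited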
- Scale: firefly reporter light: higher = more Wg reporter light, before normalisation; Renilla control light: higher = more transfected or surviving cells
- Call rule: 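Strong candidates differ from their plate mean by at least two out of four per-plate statistical tests; weak candidates meet just one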
- Calls: active = candidate regulator (raises or lowers reporter); inactive = not a candidate
The deposit covers about 22,000 reagents; below is a random part of those that have a named target and a result. Over the whole deposit, 233 (1.1%) got an active call. 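Light values are raw, unnormalised plate reads; the ratio scores behind the reporter calls were not deposited.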 Reagents against one gene are numbered here. Names joined by + are all predicted targets of the reagent. No sequences are given here. Not given: the amount of reagent, the time to read-out, the dose of the treatment.

no.	Target gene	dsRNA no.	reporter change call, replicate 1	firefly reporter light, replicate 1	firefly reporter light, replicate 2	Renilla control light, replicate 1	Renilla control light, replicate 2	activity call
1	obst-G (obstructor-G)	1		5539		2370		inactive
2	CG15701	1		3610		1884		inactive
3	CG34276	1		23061		4984		inactive
4	schlank	1		21906		9091		inactive
5	schlank	2		20516		10118		inactive
6	nrv1 (nervana 1)	1		21482		6002		inactive
7	CG10970	1		2688	9329	867	2740	inactive
8	cni (cornichon)	1		5024	8019	1859	4713	inactive
9	CG34026	1		4624		1307		inactive
10	Piezo	1		12352		6173		inactive
11	Piezo	2		2141	5763	809	2740	inactive
12	ninaC (neither inactivation nor afterpotential C)	1		7100		2988		inactive
13	CG34460	1		6408		2395		inactive
14	sov (small ovary)	1		2243	6587	661	2797	inactive
15	CG13318	1		18617		3901		inactive
16	CG13159	1		9194	7.85e5	3856	3.98e5	inactive
17	Acp53C14a (Accessory gland protein 53C14a)	1		5888		1929		inactive
18	Mayo	1		8006		2822		inactive
19	Loxl1 (Lysyl oxidase-like 1)	1		18060		15488		inactive
20	CG32206	1		4635		1988		inactive
21	CG32206	2		12041		4480		inactive
22	CG32206	3		10601		3856		inactive
23	CG32206	4		15883		6044		inactive
24	CG32206	5		14057		4353		inactive
25	mthl3 (methuselah-like 3)	1		14756		4791		inactive
26	Idgf2 (Imaginal disc growth factor 2)	1		6986		2395		inactive
27	Nbr (Nibbler)	1		8443		2440		inactive
28	Cpr60D (Cuticular protein 60D)	1		2896	6778	827	1752	inactive
29	CG11878	1		12707		10787		inactive
30	CG33494	1		4000		1714		inactive
31	EbpIII (Ejaculatory bulb protein III)	1		1849	8164	432	2165	inactive
32	Rrp45	1		17185		6794		inactive
33	CG15375	1		27245		13733		inactive
34	CG3040	1		4.98e5	4.73e5	2.23e5	1.97e5	inactive
35	CG2519	1		3830		1232		inactive
36	CG11498	1		5641		1908		inactive
37	CG33493	1		8621		3235		inactive
38	CG13564	1		2218	5572	485	1949	inactive
39	CG30274	1		2742	8237	793	2778	inactive
40	vis + achi	1		6489		1901		inactive
41	CG13314	1		903	8008	1046	2448	inactive
42	CG42562	1		9690		3581		inactive
43	l(3)80Fj (lethal (3) 80Fj)	1		15302		9101		inactive
44	KdelR (KDEL receptor)	1		8918		2317		inactive
45	Prx4 (Peroxiredoxin 4)	1		6311		2736		inactive
46	ovo	1		2386	5485	873	1288	inactive
47	ovo	2		29716		12566		inactive
48	Bug22 (Basal body up regulated gene 22)	1		2379	5350	893	1997	inactive
49	mRpL17 (mitochondrial ribosomal protein L17)	1		6573		2736		inactive
50	CG15923	1		2422	4075	1184	1575	inactive
51	CG5225	1		16949		3261		inactive
52	CG32248	1		3427		1667		inactive
53	CG14154	1		5809		2264		inactive
54	zfh2 (Zn finger homeodomain 2)	1		1417	5840	938	1501	inactive
55	Cdk8 (Cyclin-dependent kinase 8)	1		3462		1504		inactive
56	Npc2b (Niemann-Pick type C-2b)	1		13176		3277		inactive
57	CG30008	1		3.61e5	3.79e5	1.44e5	1.47e5	inactive
58	CG10616	1		5249		2032		inactive
59	CG4294	1		4524		1158		inactive
60	Osi21 (Osiris 21)	1		3017	8977	893	2282	inactive
61	CG7208	1		13984		2617		inactive
62	CG11626	1		13765		3031		inactive
63	SA1 (Stromalin 1)	1		11840		4409		inactive
64	CG17807	1		5099		1368		inactive
65	CG43691	1		6440		3248		inactive
66	CG43691	2		5665		2483		inactive
67	CG2962	1		3250	7117	1659	2540	inactive
68	CG13361	1		16914		16466		inactive
69	CG15471	1		21895		10978		inactive
70	CG31835 + CG42585	1		18908		11192		inactive
71	ICA69 (Islet cell autoantigen 69 kDa)	1		5600		2438		inactive
72	VhaAC45RP (VhaAC45-related protein)	1		4619		1175		inactive
73	Pgant3 (Polypeptide N-Acetylgalactosaminyltransferase 3)	1		8804		2363		inactive
74	Tfb1 (Transcription factor B1)	1	Wg reporter activity raised	32242		2182		active
75	lncRNA:CR43435 (long non-coding RNA:CR43435)	1		5298		1831		inactive
76	Egfr (Epidermal growth factor receptor)	1		17779		10391		inactive
77	Egfr (Epidermal growth factor receptor)	2		8816		3084		inactive
78	Hem (HEM-protein)	1		4832		2080		inactive
79	CG13784	1		21378		11273		inactive
80	CG13784	2		6257		3161		inactive
81	CG31031 (retired record)	1		4048		1962		inactive
82	CG31523	1		3556		1574		inactive
83	CG31523	2		7691	7.32e5	3689	3.53e5	inactive
84	CG31955	1		3496	8048	1232	3498	inactive
85	beat-IV (beaten path IV)	1		2488	6333	1397	1959	inactive
86	beat-IV (beaten path IV)	2		20037		10235		inactive
87	CG8300	1	Wg reporter activity raised	4357	13112	395	1088	active
88	mbf1 (multiprotein bridging factor 1)	1		9441		3345		inactive
89	Tspo + rempA	1		9379		3580		inactive
90	REG (Proteasome regulator gamma)	1		13382		7216		inactive
91	Gr98b (Gustatory receptor 98b)	1		4.60e5	4.69e5	2.36e5	2.08e5	inactive
92	CG15353	1		4813	6325	1500	2729	inactive
93	Mst33A	1		3256	8640	826	4967	inactive
